{"source": "PubChem BioAssay AID1259306 (Sanger Institute, 2017)", "aim": "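Find kinases whose loss reduces colorectal cancer cell viability or aids targeted drugs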 (primary screen)", "cell system": "human SNU-C5 colorectal cancer cells", "reagent": "siRNA pool against human genes", "challenge": "DMSO vehicle alone, or one anchor drug: BYL719 at 1 µM, cetuximab at 5 µg/ml or trametinib at 10 nM, given 24 h into the assay", "read-out": "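Replicate-averaged viability against non-targeting pool control, given as fraction and robust z-score; separate synergy scores for BYL719, cetuximab and trametinib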", "reading the numbers": "robust z-score, knock-down alone: higher = more viable cells", "call rule": "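Essential if knock-down without drug gives a robust z-score under -3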", "calls": "active = essential (knock-down alone); inactive = no change alone", "note": "This is an unselected part of 794 deposited reagents. 11 of all reagents (1.4%) were called active. 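Calls reflect knock-down alone; synergy scores play no part, so knock-downs synergising with a drug can be called no change.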 Not all columns of the deposit are shown. Not stated in the record: the amount of reagent, the time to read-out."}
{"Gene": "PKMYT1", "robust z-score, knock-down alone": 0.989, "Call": "inactive"}
{"Gene": "HASPIN", "robust z-score, knock-down alone": -1.22, "Call": "inactive"}
{"Gene": "CAMK2A", "robust z-score, knock-down alone": -0.346, "Call": "inactive"}
{"Gene": "ROS1", "robust z-score, knock-down alone": 0.989, "Call": "inactive"}
{"Gene": "ZC3H11A", "robust z-score, knock-down alone": -0.77, "Call": "inactive"}
{"Gene": "TP53BP1", "robust z-score, knock-down alone": -1.46, "Call": "inactive"}
{"Gene": "PTK2", "robust z-score, knock-down alone": -0.33, "Call": "inactive"}
{"Gene": "MAP3K15", "robust z-score, knock-down alone": -1.64, "Call": "inactive"}
{"Gene": "BCKDK", "robust z-score, knock-down alone": 0.77, "Call": "inactive"}
{"Gene": "LMTK2", "robust z-score, knock-down alone": -0.0491, "Call": "inactive"}
{"Gene": "GK", "robust z-score, knock-down alone": 0.0404, "Call": "inactive"}
{"Gene": "PKIB", "robust z-score, knock-down alone": 0.233, "Call": "inactive"}
{"Gene": "PRKACG", "robust z-score, knock-down alone": 0.989, "Call": "inactive"}

Targets above whose gene name starts with P or p (4):
{"Gene": "PKMYT1", "robust z-score, knock-down alone": 0.989, "Call": "inactive"}
{"Gene": "PTK2", "robust z-score, knock-down alone": -0.33, "Call": "inactive"}
{"Gene": "PKIB", "robust z-score, knock-down alone": 0.233, "Call": "inactive"}
{"Gene": "PRKACG", "robust z-score, knock-down alone": 0.989, "Call": "inactive"}

The listing continues:
{"Gene": "TCF12", "robust z-score, knock-down alone": 0.416, "Call": "inactive"}
{"Gene": "NEK7", "robust z-score, knock-down alone": 0.989, "Call": "inactive"}
{"Gene": "TRIB1", "robust z-score, knock-down alone": -0.659, "Call": "inactive"}
{"Gene": "RIPK3", "robust z-score, knock-down alone": 0.355, "Call": "inactive"}
{"Gene": "EFNA3", "robust z-score, knock-down alone": -0.2, "Call": "inactive"}
{"Gene": "CKB", "robust z-score, knock-down alone": 0.505, "Call": "inactive"}
{"Gene": "PTPN11", "robust z-score, knock-down alone": 0.989, "Call": "inactive"}
{"Gene": "PIK3R4", "robust z-score, knock-down alone": -0.397, "Call": "inactive"}
{"Gene": "PIP4K2B", "robust z-score, knock-down alone": 0.174, "Call": "inactive"}
{"Gene": "MAPKAPK3", "robust z-score, knock-down alone": -1.5, "Call": "inactive"}
{"Gene": "PAPSS1", "robust z-score, knock-down alone": 0.989, "Call": "inactive"}
{"Gene": "BPTF", "robust z-score, knock-down alone": 0.281, "Call": "inactive"}
{"Gene": "ITSN1", "robust z-score, knock-down alone": -0.273, "Call": "inactive"}
{"Gene": "STK26", "robust z-score, knock-down alone": 0.359, "Call": "inactive"}
{"Gene": "RPS6KA5", "robust z-score, knock-down alone": 0.7, "Call": "inactive"}
{"Gene": "MOK", "robust z-score, knock-down alone": 0.898, "Call": "inactive"}
{"Gene": "UCK1", "robust z-score, knock-down alone": 0.989, "Call": "inactive"}
{"Gene": "PCK1", "robust z-score, knock-down alone": 0.133, "Call": "inactive"}
{"Gene": "NEK4", "robust z-score, knock-down alone": -0.542, "Call": "inactive"}
